Results are given in words; binding and its absence hold for the method and conditions named. Some binding calls cover weakened binding; strength is not graded here.
Molecular target: GST-NEMO^241–419 (human) (UniProt Q9Y6K9)
Test: pull-down; purified GST-NEMO fusions mixed with purified IKK proteins in the presence of Ub4, 1 h at 4 °C, then glutathione–agarose beads 2 h at 4 °C; 25 mM Tris–HCl pH 7.5, 150 mM NaCl, 1 mM EDTA, 0.5% NP-40, 0.55% Triton X-100, 5% glycerol, 1 mM DTT; four washes; Western blot; both purified

Protein sequences, listed by entry. Tags and fused reporters are not part of them. Residues count along the entry.
UniProt Q9Y6K9, residues 241-419: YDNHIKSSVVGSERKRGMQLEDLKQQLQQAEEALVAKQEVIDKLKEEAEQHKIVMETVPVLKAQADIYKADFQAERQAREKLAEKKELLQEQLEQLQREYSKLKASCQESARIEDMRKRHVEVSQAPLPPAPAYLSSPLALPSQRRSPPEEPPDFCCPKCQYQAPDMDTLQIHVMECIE

B1: IKK1^10–667 (domain or fragment, UniProt O15111 10-667)
chain: GAGGPWEMRERLGTGGFGNVCLYQHRELDLKIAIKSCRLELSTKNRERWCHEIQIMKKLNHANVVKACDVPEELNILIHDVPLLAMEYCSGGDLRKLLNKPENCCGLKESQILSLLSDIGSGIRYLHENKIIHRDLKPENIVLQDVGGKIIHKIIDLGYAKDVDQGSLCTSFVGTLQYLAPELFENKPYTATVDYWSFGTMVFECIAGYRPFLHHLQPFTWHEKIKKKDPKCIFACEEMSGEVRFSSHLPQPNSLCSLVVEPMENWLQLMLNWDPQQRGGPVDLTLKQPRCFVLMDHILNLKIVHILNMTSAKIISFLLPPDESLHSLQSRIERETGINTGSQELLSETGISLDPRKPASQCVLDGVRGCDSYMVYLFDKSKTVYEGPFASRSLSDCVNYIVQDSKIQLPIIQLRKVWAEAVHYVSGLKEDYSRLFQGQRAAMLSLLRYNANLTKMKNTLISASQQLKAKLEFFHKSIQLDLERYSEQMTYGISSEKMLKAWKEMEEKAIHYAEVGVIGYLEDQIMSLHAEIMELQKSPYGRRQGDLMESLEQRAIDLYKQLKHRPSDHSYSDSTEMVKIIVHTVQSQDRVLKELFGHLSKLLGCKQKIIDLLPKVEVALSNIKEADNTVMFMQGKRQKEIWHLLKIACTQSSARSLV
- binding: binds weakly
